Source: publication PMC6104087, “Structural basis for membrane tethering by a bacterial dynamin-like pair” (Nature Communications, 2018)

Molecular target: Cj-DLP1 (Campylobacter jejuni)
Assay: SEC-MALS; individual proteins; 100 μl at 1–2 mg/ml on Superdex 200 10/300 GL in TEN 7.5 (20 mM Tris pH 7.5, 1 mM EDTA, 1 mM sodium azide), 1 mM DTT; both purified

B1: Cj-DLP1 (natural protein, Campylobacter jejuni, UniProt A0A0H3PJL7 1-728, looked up)
chain: MKELFQKIWQNELQFLNFDAKFQDKSKLDTAECAIILSVNKDNYERYFLLKEFQELCKKIDLRVDIFSMQNAQICILNLFKSGFISKQDLLKALKILEKISKNTEIFDFILQEKVQSIDQKALFQNDFKELNTINLELQKLSFDENLKSRLQKTLEKFQNLEFNIAITGVMNAGKSSLLNALLKEDFLGVSNIPETANLTVLSYGKSEEAKIYFWDKKEWQNILESSHFNADLKEFIDKLDKSVNIEDFIKDKPLIQNIALCELKNFSSAKNKISALIKKIEIKSHLEFLKNNISIVDTPGLDDVVVQREIVTNEYLRESDFLIHLMNASQSLTQKDADFLVHCLLNSRLSKFLIVLTKADLLSKKDLEEVIVYTKESLKSRLVDLDENLVEKIDFLCVSAKMASDFYKGLASKESLQKSGMQEFENYLFNELYAGEKSKIALRAYKKELHLELKNILSEYEMQNRLIKENKQGVSEENQKLLLELQKQNTLLKEAQDEISNSIAKLKNIDSGIDNLVLLLAKKLKERLIDEFKYLKNNAQKLNLSRILNIVDITTKDGINDILREIKFENIKKIEELKTNLSLKYDFLKDDFDNGFEGFKDGISKNIDSIFQSEKFALLRLKIEKLSNLKSDLYELETNLDTVIFDTFKEFKMSEILNSLNINGAFFEFLNDKLKHYEKNQKSKLESLEKVLQSLKNQDANILNSFEENLEKIEKLKQLEMGLLNAD
notes: Cj-DLP1, dynamin-like protein of Campylobacter jejuni, gene cj0411, full-length protein, 84.5 kDa; Monomer alone; Two copies stand in the 2:2 tetramer with Cj-DLP2; also called cj0411; CJ0411; source: E. coli BL21 (DE3), purified (HisTrap, gel filtration)
**Q.** Which binding does the source give for B1 here?
**A.** no binding (tested: 100 μl at 1–2 mg/ml injected)

No constants are given. Whether binding was seen depends on the method and setting.
